# In all, about 320,000 compounds went through this assay and about 2,100 (0.66%) were called active. This list was built around the results that the source calls inconclusive (neither active nor inactive); the mix of calls is not that of the screen. Calls follow the shape of the dose curve; as a rule, active = well fitted inhibition curve with a large enough effect in the signal ratio, with a control signal flat (not every such curve was filed as active); inconclusive = small, poorly fitted or top-dose-only effect, or effect the other way, or a change in a side signal; inactive = flat fitted curve, though single readings scatter; the % refers to the signal ratio. Potencies beside an inconclusive call are fits to weak or partial responses and may not hold up.
# Experiment: qHTS Assay for Lipid Storage Modulators in Drosophila S3 Cells
# Conditions: BODIPY lipid droplet fluorescence, 18-24 h, cells fed with added oleic acid; lipid storage change, negative = inhibition: at 46.1 µM (top of the series) unless noted
# Outline: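 Drosophila S3 cells loaded with oleic acid (400 uM, as added) and compounds at several concentrations; lipid droplets imaged by 488-nm laser-scanning cytometry, 500–530 nm intensity and object ratio to cell channel. Percent activity normalized to 20 uM Triacsin C.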
# % is scaled to controls: 0 for no effect and ±100 for the full control effect; potency is read from the fitted curve at half-maximal effect.
Compound,"lipid storage change, negative = inhibition",Potency
COc1ccc(C(=O)NC2CCN(CC(=O)Nc3cccc(OC)c3)CC2)cc1,inconclusive: 59%,
CCOc1ccc(NC(=O)c2cccc3c2C(=O)N(CC2CCCO2)C3)cc1 (centres undefined),,"inconclusive: 0.13 µM [activator, full curve]"
COc1ccc(S(=O)(=O)N2CCC(n3cnc4ccccc43)CC2)cc1,inconclusive: 24.9%,
C/C(=N\NC(=O)c1cc([N+](=O)[O-])cc([N+](=O)[O-])c1)c1ccco1,,"inconclusive: 20.6 µM [falling, single point]"
CCn1c(CCc2ccccc2)nnc1SCC(N)=O,,"inconclusive: 6.51 µM [activator, single point]"
CCOC(=O)/C(C#N)=C/Nc1ccsc1C(C)=O,inconclusive: 8.42%,
O=C(COC(=O)c1cc[n+]([O-])cc1)NCCc1ccc(Cl)cc1Cl,inconclusive: 0.0461%,
O=C(O)COc1ccccc1/C=C1\SC(=S)N(/N=C/c2ccccc2O)C1=O,inconclusive: 34.5%,
COc1cc(N2CCOCC2)ccc1C=C(C#N)C#N,,"inconclusive: 18.4 µM [falling, single point]"
Cc1cccc2c(=O)cc(C)n(CC(N)=O)c12,inconclusive: 29%,
CC1CC(C)CN(S(=O)(=O)N2CCCC(C(=O)NC3CCCCC3)C2)C1 (centres undefined),inconclusive: 1.66%,
O=C(Nc1cccc2nsnc12)c1ccc(-c2cccc(Cl)c2)o1,inconclusive: -30.3%,
Cc1cc(SCC(=O)c2cc(C)n(C)c2C)nc2ccccc12,inconclusive: -33.2%,
COc1ccc(C(CC(=O)O)NC(=O)Cc2ccccc2)cc1 (centres undefined),,"inconclusive: 0.259 µM [falling, partial curve]"
NC(=O)NC(CC(=O)NNC(=O)c1ccccn1)c1ccccc1Cl (centres undefined),inconclusive: -72.2%,
COc1ccc(S(=O)(=O)NC2CCCC2)cc1Cl,inactive,
COc1ccc(NC(=O)CN(C)S(=O)(=O)c2ccc3[nH]c(=O)oc3c2)cc1,inconclusive: 130%,
Cc1ccc(NC(=S)NC(=O)C2CCCC2)cc1C,inconclusive: 40.4%,
O=C(CN1C(=O)COc2ccccc21)N(CCCN1CCOCC1)CC1CC=CCC1 (centres undefined),inconclusive: 2.18%,
COC(=O)c1ccc(/C=N/NC(=O)C(=O)N2CCCCCC2)cc1,inconclusive: 8.43%,
O=C(CS(=O)(=O)Cc1ccccc1)N1CCN(c2cccc(C(F)(F)F)c2)CC1,inconclusive: 78.1%,
CCC(C)[C@H]1COCCS(=O)(=O)N1Cc1ccccc1 (some centres undefined),inconclusive: 7.68%,
Cc1ccc(N/N=C2\CCS(=O)(=O)c3sccc32)cc1,inconclusive: -3.13%,
COc1ccc(N(CC(=O)NC2CCCC2)C(=O)c2ccc(C)s2)cc1OC,,"inconclusive: 29.1 µM [activator, single point]"
CCCCOC(=O)/C=C/c1c(C)[nH]c(=O)[nH]c1=O,,"inconclusive: 1.46 µM [activator, partial curve]"
CC(=O)c1ccc(N(C(=O)c2csnn2)C(C(=O)NC2CCCC2)c2ccccc2)cc1 (centres undefined),,"inconclusive: 29.1 µM [activator, single point]"
Cc1ccccc1C(=O)NC(=S)Nc1ccc(N2CCOCC2)cc1,inconclusive: -77.6%,

Compound,"lipid storage change, negative = inhibition",Potency
CN(C)CCCCNCCCNC(=O)/C=N\O,inconclusive: -32.7%,
Cc1ccc(S(=O)(=O)c2nc(Nc3ccccc3)sc2Cl)cc1,inconclusive: -25.5%,
CC(CN1CCCCC1)OC(=O)C(C)(c1ccccc1)c1ccccc1 (centres undefined),,"inconclusive: 0.92 µM [falling, full curve, poor fit]"
Cc1ccc(C)c(NC(=O)CCC(=O)N/N=C/c2cccnc2)c1,,"inconclusive: 29.1 µM [activator, single point]"
Cn1c(=O)c(C(=O)CCl)c(N)n(Cc2ccccc2)c1=O,inconclusive: 12.1%,
O=C(NCCCN1CCCC1=O)c1ccc(S(=O)(=O)Nc2ccccc2)cc1,inconclusive: 12.6%,
COc1ccc(N2CCN(CC(=O)c3ccc(Cl)cc3)CC2)cc1,,active: 6.51 µM
Cc1cc(C)cc(OCC(=O)NC2CCCc3ccccc32)c1 (centres undefined),,"inconclusive: 13 µM [falling, partial curve, poor fit]"
Cc1ccc(NC(=O)C(Nc2ccccc2)c2ccccc2)cc1 (centres undefined),inconclusive: 38.3%,
CCN(CC(=O)Nc1c(F)cccc1F)C(=O)CSCC(=O)Nc1cccc(C)c1,,"inconclusive: 2.31 µM [falling, partial curve]"
O=C(/C=C/c1ccc(Cl)c([N+](=O)[O-])c1)Nc1cccc(NC(=O)c2ccco2)c1,inconclusive: -33.4%,
COc1ccc(C(=O)N2CCN(c3ncccn3)CC2)cc1[N+](=O)[O-],inconclusive: -136%,
CCCCc1nc2cc(Cl)ccc2o1,inconclusive: -20.7%,
Cc1c[n+](CC(=O)c2ccccc2)cs1,inconclusive: 62.1%,
O=C(O)c1cccc(-n2cnnn2)c1,inconclusive: -113%,
COc1ccc(NS(=O)(=O)c2cc(NC(=O)c3ccc(F)cc3)ccc2OC)cc1,inconclusive: -11%,
COc1ccc(NC(=O)CN(C)C(=O)C2CC(=O)N(c3cccc4ccccc34)C2)cc1 (centres undefined),inconclusive: 28.3%,
O=C(c1cc2cc(Cl)ccc2o1)N1CCCC1,inconclusive: 41.7%,
Cc1ccc(N(Cc2ccccc2)C(=O)c2ccc(F)c(S(=O)(=O)N3CCOCC3)c2)cc1,,"inconclusive: 29.1 µM [activator, single point]"
COc1ccc(NC(=O)C2CCCN2S(=O)(=O)c2ccc3c(c2)CC(C)N3C(C)=O)cc1OC (centres undefined),inconclusive: 106%,
O=C(c1cc(-c2cccc(Cl)c2)on1)N1CCN(c2ccccc2)CC1,inconclusive: 26.6%,
Cn1c(C(=O)c2ccncc2)cc2ccccc21,inconclusive: 5.64%,
CN1CC(=O)N(CC(=O)Nc2ccc3c(c2)CCC3)C1=O,,"inconclusive: 4.61 µM [falling, single point]"
O=C(NCc1ccco1)/C(=C/c1ccccc1)NC(=O)c1ccco1,inconclusive: 334%,
Cc1cc2cc(CCNC(=O)c3ccc(Br)o3)c(=O)[nH]c2cc1C,inconclusive: -33.3%,
COc1ccc(N(C(=O)c2snc(C(N)=O)c2N)C(C(=O)NCc2ccccc2)c2ccc(O)cc2)cc1OC (centres undefined),,"inconclusive: 29.1 µM [activator, partial curve, poor fit]"
c1ccc(-n2c(-c3ccncc3)nnc2N2CCOCC2)cc1,inconclusive: -25.6%,

Compound,"lipid storage change, negative = inhibition",Potency
Cc1ccccc1NC(=O)COC(=O)c1ccc(S(=O)(=O)N2CCCCCC2)cc1,inconclusive,
COc1ccc(CCN2C(=O)CC(NC34CC5CC(CC(C5)C3)C4)C2=O)cc1OC (centres undefined),,"inconclusive: 0.0231 µM [falling, full curve, poor fit]"
CC1(C)NC(C)(C)C(O)(C(N)=O)C1=O (centres undefined),inconclusive: -22.5%,
Cn1c(N2CCC(C(N)=O)CC2)nc2c1c(=O)n(Cc1cccc(Br)c1)c(=O)n2C,inconclusive: 32.7%,
Cn1c(=O)[nH]c(=O)c2c1nc(Sc1ncccn1)n2CCCc1ccccc1,,"inconclusive: 29.1 µM [activator, partial curve, poor fit]"
Cc1ccc(S(=O)(=O)Nc2ccc(N3CCOCC3)cc2)cc1C,inconclusive: 377%,
CCSc1nnc(NC(=O)CSc2nnc(-c3c[nH]c4ccccc34)n2CC)s1,inactive,
COc1ccccc1NC(=O)Cn1c(=O)n(CCc2c[nH]c3ccccc23)c(=O)c2cccnc21,,"inconclusive: 0.291 µM [activator, full curve, poor fit]"
COc1ccc(C(=O)OCC(=O)Nc2ccc(N3CCOCC3)cc2)cc1,inconclusive: 7.03%,
Cc1nnc(NC(=O)c2c(F)cccc2F)s1,inconclusive: 7.09%,
COc1ccccc1NS(=O)(=O)c1ccc(N/N=C(\C)C(C)C)c([N+](=O)[O-])c1,,"inconclusive: 18.4 µM [cytotoxic, single point]"
CCC1=NN(C(=O)COc2ccccc2)C(O)(c2ccc(Br)cc2)C1 (centres undefined),inconclusive: -93%,
CCCn1c(C(O)c2cccc(OC)c2)nc2ccccc21 (centres undefined),inconclusive: 64.8%,
CCOc1ccccc1NC(=O)CCN(c1ccc(C)cc1)S(=O)(=O)c1ccccc1,,"inconclusive: 16.4 µM [falling, single point]"
CC[N+](C)(CC)CCC/C(=N/O)C(O)(c1ccccc1)c1ccccc1,inconclusive: -19%,
O=C(/C=C/c1ccco1)Nc1ccc2c(c1)OCCO2,inconclusive: 6.34%,
CN1CCN(C(=O)CCc2nc3ccccc3n2-c2ccccc2)CC1,inconclusive: 10.7%,
CCCS(=O)(=O)C/C(N)=N/OC(=O)c1ccccc1Cl,inactive,
COc1ccccc1NC(=O)CNC(=O)Cn1c(C)cc2ccccc2c1=O,inconclusive: 148%,
Cc1c(Cl)cccc1NC(=O)CC1Sc2ccccc2NC1=O (centres undefined),inconclusive: 7.3%,
COc1ccc(Nc2nnc(SCC(=O)c3cc4ccccc4o3)s2)cc1,,"inconclusive: 9.2 µM [falling, partial curve, poor fit]"
CN1CCN(C(=O)c2ccc(CSc3nc4ccncc4n3Cc3ccc(F)cc3)cc2)CC1,inconclusive: 0.0295%,
CCOC(=O)C1CCCN(C(=O)Cc2ccc(OC)c(OC)c2)C1 (centres undefined),,"inconclusive: 16.4 µM [activator, partial curve, poor fit]"
CCOc1ccc(C2NCCc3cc(OC)c(OC)cc32)cc1OC (centres undefined),inconclusive: 37.5%,
c1ccc2cc(Cn3ccnc3)ccc2c1,inconclusive: 282%,
